The exact form of at least one protein or probe is not confirmed. Results from cells or extracts need not show a direct contact. At least one verdict was read from the data and is not stated in words by the source.

Chains of the proteins cited; added tags and fusions are not shown. Lines headed by an entry give the natural chain unless they say otherwise; changes in a name come on top. Chains listed by the source or under a name are the forms on record and can include a tag or linker.
BmERR (nuclear protein, native) (Bombyx mori (D9L per Fig 7D)), one chain, as listed by the source: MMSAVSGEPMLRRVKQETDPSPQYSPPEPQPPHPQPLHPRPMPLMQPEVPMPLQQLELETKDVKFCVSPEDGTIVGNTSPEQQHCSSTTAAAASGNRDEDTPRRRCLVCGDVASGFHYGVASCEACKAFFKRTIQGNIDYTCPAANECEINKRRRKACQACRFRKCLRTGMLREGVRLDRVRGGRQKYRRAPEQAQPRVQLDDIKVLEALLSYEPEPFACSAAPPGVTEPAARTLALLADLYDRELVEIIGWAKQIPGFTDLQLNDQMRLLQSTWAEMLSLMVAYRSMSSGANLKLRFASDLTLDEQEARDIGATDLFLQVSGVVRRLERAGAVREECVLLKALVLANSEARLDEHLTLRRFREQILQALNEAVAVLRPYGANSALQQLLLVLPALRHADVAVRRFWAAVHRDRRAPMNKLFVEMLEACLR

These results are taken from article PMC12112554, “Estrogen-Related Receptor Potential Target Genes in Silkworm (Bombyx mori): Insights into Metabolic Regulation”.

The data set concerns BmERR (nuclear protein, native) (Bombyx mori (D9L per Fig 7D)). The experiment in a line: EMSA. The note with it: weakened by BmERR antibody and competitor, Beyotime kit buffer (composition not given), 25 °C 25 min, 5% native PAGE in 1x TBE (45 mM Tris-borate, 1 mM EDTA, pH 8.3), protein in an extract, label: biotin 3'. (A gel shift assay detects complexes by their altered migration in electrophoresis.)
Consider “AGCTTCTCCTTGACGTGTAG (double strand) [Tret1 CRE1]”, for which the binding result is recorded as “binds”. With “GCGGACTCACAAGGTCCTACCA (double strand) [Tret1 CRE3]” the entry was “binds”; with “TTTTTGTAACCTTAAACTCCT (double strand) [Tret1 CRE2]”, “binds”.
